According to patent publication EP4335450A1:
No constants are given. Whether binding was seen depends on the method and setting. Some results given as binding are weak or reduced against the parent protein; the word gives no strength.

Target: human transferrin receptor-Fc tag standard (human) (UniProt P02786)
Assay: ELISA, hTfR-Fc coated on plate

B1: huHF_Mutant2-dual (protein)
chain: MTTASTSQVRQNYHAASEAAINAQINLELYASYVYLSMSYYFDRDDVALKNFAKYFLHQSHEEREHAEKLMKLQNQRGGRIALADIQKPDCDDGGSYGSLYAFDIWESGLNAMECALHLEKNVNQSLLALHALATAKNDPHLCDFIETHYLNEQVKAIKELGDHVTNLRKMGAPESGLAEYLFDKHTLGDSDNESMPSFITLASLSTWEGYFDF
binding: binds
